From the supplement of paper PMC8104966
This is one part of the list. Repeats in this data set agree poorly, so a single value says little.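 Fusion between ACE2-bearing and full-length-spike-bearing U2OS cells was measured by imaging as the percentage of nuclei with both cell types' fluorescent markers. An inhibitory hit is a non-toxic compound whose fusion z-score is below -3, more than three standard deviations beneath the plate's DMSO wells.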

System: U2OS ACE2 x SARS-CoV-2 spike co-culture
Test: cell-cell fusion (fraction fused) z-score vs plate DMSO control; higher = more fusion
Settings: 30 µM; 5 h; toxicity class: non-toxic, passed QC

SMILES | cell-cell fusion (z-score)
CC(=O)[O][Hg][c]1ccccc1 | inactive: 4.01
N#C/C(=C\c1ccc(O)cc1)C(=O)O [alpha-CYANO-4-HYDROXYCINNAMIC ACID] | inactive: 3.76
CS(=O)(=O)O.C[C@H](NCc1ccc(OCc2cccc(F)c2)cc1)C(N)=O [Safinamide mesylate] | inactive: 0.204
CC1C(=O)O[C@H]2C1CCC1(C)CCC(=O)[C@@H](C)[C@H]21 (some centres undefined) | inactive: 2.63
C[N+](C)(C)CCO.[Br-] [Choline bromide] | inactive: 2.73
COc1ccc(CC2c3cc(OC)c(OC)cc3CC[N+]2(C)CCC(=O)OCCCCCOC(=O)CC[N+]2(C)CCc3cc(OC)c(OC)cc3C2Cc2ccc(OC)c(OC)c2)cc1OC.O=S(=O)([O-])c1ccccc1.O=S(=O)([O-])c1ccccc1 (centres undefined) [Atracurium besylate] | inactive: 1.25
Nc1nc(N)c2nc(-c3cccc(O)c3)cnc2n1 | inactive: -2.25
COP(=S)(OC)Oc1cc(Cl)c(Cl)cc1Cl | inactive: 1.75
S=P(N1CC1)(N1CC1)N1CC1 | inactive: 2.26
S=P(N1CC1)(N1CC1)N1CC1 [Triethylenethiophosphoramide] | inactive: 1.37
C[C@H](NC(=O)/C(C#N)=C/c1ccc(O)c(O)c1)c1ccccc1 [Tyrphostin AG 835] | inactive: -0.255
CSc1nc2cc(Oc3cccc(Cl)c3Cl)c(Cl)cc2[nH]1 [Triclabendazole] | inactive: -1.07
C=C(C)C1CC=C(C(=O)O)CC1 (single isomer, unassigned; (-)) [(-)-Perillic acid] | inactive: 0.807
O=C1CCCC2C3CC(CN12)[C@@H]1CCCCN1C3.[O-][Cl+3]([O-])([O-])O (some centres undefined) | inactive: 2.84
CC[C@@H]1OC(OC(c2c[nH]cn2)C(NC(=O)c2nc(C(CC(N)=O)NCC(N)C(N)=O)nc(N)c2C)C(=O)NC(C)C(O)C(C)C(=O)NC(C(=O)NCCc2nc(-c3nc(C(=O)NCCCCNC(=N)N)cs3)cs2)C(C)O)[C@@H](O[C@H]2O[C@H](CO)[C@@H](O)[C@H](OC(N)=O)[C@@H]2O)[C@@H](C)[C@@H]1C.O=S(=O)(O)O.O=S(=O)(O)O (some centres undefined) [BLEOMYCIN (bleomycin B2 shown)] | inactive: 2.52
CCCCOc1cc(C(=O)OCCN(CC)CC)ccc1N.Cl | inactive: 1.04
Cc1c(C)c2c(c(C)c1O)CCC(C)(COc1ccc(CC3SC(=O)NC3=O)cc1)O2 (centres undefined) [Troglitazone] | inactive: 2.32
Nc1nc(=O)c2c([nH]1)NC[C@H](CCc1ccc(C(=O)N[C@@H](CCC(=O)O)C(=O)O)cc1)C2 [Lometrexol hydrate] | inactive: 2.76
Cc1c(N(C)C)c(=O)n(-c2ccccc2)n1C | inactive: 2.69
C[C@]12CCC(=O)C=C1CC[C@@H]1[C@H]2[C@H](O)C[C@@]2(C)[C@H]1CC[C@@]2(O)C(=O)CO [Hydrocortisone (Cortisol)] | inactive: 1.49
COc1cc2ncc(-c3ccccc3)nc2cc1OC [Tyrphostin AG 1296] | inactive: -1.19
CC(C)NCC(O)c1ccc(O)c(O)c1.Cl (centres undefined) | inactive: -0.117

SMILES | cell-cell fusion (z-score)
C[C@@H]1C[C@H]2[C@@H]3CCC4=CC(=O)C=C[C@]4(C)[C@]3(F)[C@H](O)C[C@]2(C)[C@]1(O)C(=O)CO [Dexamethasone] | inactive: 1.66
CC(C)NCC(O)c1ccc(NS(C)(=O)=O)cc1.Cl (racemic) [(±)-Sotalol hydrochloride] | inactive: 1.46
OC1(c2ccc(Cl)cc2)CCN(Cc2c[nH]c3ccccc23)CC1 | inactive: 2.71
CCOc1ccc(NC(C)=O)cc1 | inactive: 2.77
O=C1Cc2c([nH]c3ccc(Br)cc23)-c2ccccc2N1 [Kenpaullone] | inactive: 1.47
Cc1cnc(NC(=O)C2=C(O)c3ccccc3S(=O)(=O)N2C)s1 [Meloxicam] | inactive: 3.57
Cl.NC(Cc1ccc(Cl)cc1)C(=O)O (racemic) | inactive: 0.907
C[N+](C)(C)CC#CCOC(=O)Nc1cccc(Cl)c1.[Cl-] | inactive: 1.73
Cl.c1ccc2c(c1)CN1CCCC1=N2 | inactive: 1.98
CC[C@@]1(O)C[C@H](O)c2c(cc3c(c2O)C(=O)c2c(O)ccc(O)c2C3=O)[C@H]1C(=O)OC | inactive: 1.71
Cl.N=C(N)NN | inactive: 1.46
Cl.N=C(N)NN [Aminoguanidine hydrochloride] | inactive: 2.25
CC(C)c1nc(N(C)S(C)(=O)=O)nc(-c2ccc(F)cc2)c1/C=C/[C@@H](O)C[C@@H](O)CC(=O)[O-].[Ca+2] | inactive: 0.791
CC1(C)O[C@@H]2C[C@H]3[C@@H]4CCC5=CC(=O)CC[C@]5(C)[C@@]4(F)[C@@H](O)C[C@]3(C)[C@]2(C(=O)CCl)O1 [Halcinonide] | inactive: 4.76
COc1c(-c2coc3cc4c(cc3c2=O)CC(OC(C)=O)C(C)(C)O4)ccc2c1C=CC(C)(C)O2 (centres undefined) | inactive: 2.06
CC(O)CC(C)(C)O (centres undefined) | inactive: 2.71
CCOC(=O)c1ccc(O)cc1 | inactive: 4.8
COc1ccc2c(=O)cc(-c3ccccc3OC)oc2c1 | inactive: 2.01
CC(=O)O[C@@H]1C2CC[C@@H]3C1(C[C@@H](O)[C@@]1(O)[C@@H](C[C@H](O)C1(C)C)[C@]3(C)O)C[C@@]2(C)O (some centres undefined) | inactive: 2.55
NC(=O)c1cccnc1 [Nicotinamide] | inactive: 2.6
O=C1[O][Bi]([OH])[O]c2ccccc21 | inactive: 2.73
CC(=O)O[C@H]1C(=O)[C@@]2(C)C([C@H](OC(=O)c3ccccc3)[C@]3(O)C[C@H](OC(=O)[C@H](O)[C@@H](NC(=O)c4ccccc4)c4ccccc4)C(C)=C1C3(C)C)[C@]1(OC(C)=O)CO[C@@H]1C[C@H]2O (some centres undefined) [Paclitaxel (Taxol)] | inactive: 1.78

3 records drawn at random from the list so far, as already listed:
SMILES | cell-cell fusion (z-score)
CS(=O)(=O)O.C[C@H](NCc1ccc(OCc2cccc(F)c2)cc1)C(N)=O [Safinamide mesylate] | inactive: 0.204
C[N+](C)(C)CC#CCOC(=O)Nc1cccc(Cl)c1.[Cl-] | inactive: 1.73
O=C1[O][Bi]([OH])[O]c2ccccc21 | inactive: 2.73
